# Results deposited as PubChem BioAssay AID686938 (Drosophila RNAi Screening Center, 2013)
# Aim: 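Knock-downs reducing store-operated calcium influx in Drosophila cells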 (primary screen)
# System: Drosophila S2R+ cells
# Reagent: long dsRNA against Drosophila genes, about 0.25 µg dsRNA per well, roughly 10,000 cells
# Time to read-out: 5 days of knock-down before the calcium assay
# Challenge: thapsigargin (SERCA pump blocker) to empty calcium stores; entry signal taken 4 min after adding it
# Detection: 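Duplicate raw fluo-4 intensities per well from a plate reader, at rest and four minutes after thapsigargin emptied calcium stores; entry-to-rest ratio filled for only some wells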
# Scale: calcium entry signal: higher = stronger calcium signal after store depletion; entry to resting ratio: higher = more calcium entry relative to resting level; resting calcium signal: higher = higher resting calcium signal
# Hit rule: 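Hit if the duplicate-averaged plate z-score for entry over resting signal is under −3; wells with weak total dye signal (Fmax z < −2) or more than 5 off-targets removed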
# Meaning of the calls: active = strongly reduced calcium entry; inactive = no strong reduction
# The deposit covers about 23,000 reagents; below is a random part of those with a known target gene and a result. Over the whole deposit, 75 (0.33%) got an active call. 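Raw plate signals without normalisation; calls rest on plate z-scores that were not deposited; ratio present for only 364 wells.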 Entries without a mark were called inactive. A plus sign joins genes that one reagent is predicted to hit. The record does not give: the dose of the treatment.
The opening 3 entries, to show the layout:
gene knocked down,dsRNA,"calcium entry signal, replicate 1 (fluorescence units)","calcium entry signal, replicate 2 (fluorescence units)",entry to resting ratio,"resting calcium signal, replicate 1 (fluorescence units)","resting calcium signal, replicate 2 (fluorescence units)"
Ack-like (Activated Cdc42 kinase-like),DRSC07500,3.89e7,3.34e7,,1.82e7,1.72e7
Ack-like (Activated Cdc42 kinase-like),DRSC21845,1.83e7,3.62e7,,9.36e6,1.68e7
ORY (Occludin-Related Y),DRSC22883,3.85e7,3.19e7,,1.82e7,1.31e7

Main list, from the start:
gene knocked down,dsRNA,"calcium entry signal, replicate 1 (fluorescence units)","calcium entry signal, replicate 2 (fluorescence units)",entry to resting ratio,"resting calcium signal, replicate 1 (fluorescence units)","resting calcium signal, replicate 2 (fluorescence units)"
Ack-like (Activated Cdc42 kinase-like),DRSC07500,3.89e7,3.34e7,,1.82e7,1.72e7
Ack-like (Activated Cdc42 kinase-like),DRSC21845,1.83e7,3.62e7,,9.36e6,1.68e7
ORY (Occludin-Related Y),DRSC22883,3.85e7,3.19e7,,1.82e7,1.31e7
Got1 (Glutamate oxaloacetate transaminase 1),DRSC07177,3.25e7,3.05e7,,1.53e7,1.52e7
CG8388,DRSC07157,3.79e7,4.87e7,,1.60e7,2.12e7
CG9518,DRSC20194,3.19e7,3.02e7,,1.71e7,1.47e7
CG34234 + Dh44-R2,DRSC07278,3.96e7,4.30e7,,1.65e7,2.09e7
CG5435,DRSC02860,4.55e7,2.90e7,,2.06e7,1.40e7
CG4702,DRSC15626,2.72e7,4.20e7,,1.30e7,1.76e7
CG6443,DRSC02958,4.01e7,,,1.94e7,
ssp (sunspot),DRSC10252,4.24e7,4.16e7,,3.23e7,1.94e7
CG32376,DRSC22754,4.02e7,3.57e7,,2.22e7,1.69e7
snz (snazarus),DRSC17969,2.01e7,3.31e7,,1.06e7,1.44e7
CG7924,DRSC10931,2.18e7,3.20e7,,1.08e7,2.30e7
Cda4 (Chitin deacetylase-like 4),DRSC20623,4.69e7,5.01e7,,2.37e7,2.08e7
Cda4 (Chitin deacetylase-like 4),DRSC20641,5.04e7,4.88e7,,2.41e7,2.18e7
Cda4 (Chitin deacetylase-like 4),DRSC20642,5.55e7,5.26e7,,2.72e7,2.09e7
heph (hephaestus),DRSC14082,4.06e7,2.77e7,,1.71e7,1.20e7
heph (hephaestus),DRSC14085,4.63e7,3.01e7,,1.95e7,1.28e7
heph (hephaestus),DRSC15436,3.59e7,4.26e7,2,1.79e7,1.98e7
heph (hephaestus),DRSC16783,3.76e7,4.77e7,2,1.87e7,1.98e7
CG34445,DRSC22404,2.00e7,2.78e7,,1.09e7,1.27e7
CG31126,DRSC14623,2.84e7,4.22e7,,1.73e7,1.81e7
Had1 (beta Hydroxy acid dehydrogenase 1),DRSC20216,4.34e7,3.05e7,,2.16e7,1.49e7
tx (taxi),DRSC16931,3.28e7,3.68e7,,1.55e7,1.73e7
Crtc (CREB-regulated transcription coactivator),DRSC10578,3.45e7,4.22e7,,1.88e7,2.00e7
Crtc (CREB-regulated transcription coactivator),DRSC23130,3.04e7,3.42e7,,1.51e7,1.67e7
CG7031,DRSC16178,3.41e7,3.29e7,,1.94e7,1.69e7
CG7031,DRSC23028,3.09e7,3.75e7,,1.40e7,1.47e7
hubl (hug-bell),DRSC06825,3.48e7,3.98e7,,1.73e7,1.89e7
CG10321,DRSC04061,2.86e7,1.87e7,,1.29e7,1.02e7
Idgf2 (Imaginal disc growth factor 2),DRSC03350,3.66e7,,,1.95e7,
dnt (doughnut on 2),DRSC03522,4.14e7,,,2.33e7,
Arts + Apl,DRSC10349,3.49e7,5.25e7,,1.68e7,1.97e7
mas (masquerade),DRSC08720,4.52e7,3.92e7,,2.99e7,1.78e7
ATP8B (ATPase 8B),DRSC12883,3.38e7,4.39e7,,1.82e7,2.07e7
ATP8B (ATPase 8B),DRSC14961,2.37e7,2.36e7,,1.25e7,1.19e7
Boh1 (Buddy of Hmr 1),DRSC14487,5.12e7,5.87e7,,2.20e7,2.74e7
CG4497,DRSC02754,3.85e7,,,2.22e7,
Cog1 (Component of oligomeric golgi complex 1),DRSC15661,4.09e7,4.95e7,,1.83e7,2.08e7
